Assay results taken from US20170204123A1, “Gold (I)-Phosphine Compounds as Anti-Bacterial Agents” (Auspherix Limited, priority 2014, published 2017).

test system: chinese hamster ovary cells (CHO); test: CHO toxicity assay (CCK-8 cell viability); format: cell-based; settings: dose giving 50% growth inhibition of CHO cells divided by dose where 50% of S. aureus growth is inhibited
Description: Cell counting kit-8 (Sigma, CCK-8) assays were performed to assess the effect of compounds on cell viability. The assay is based on the reduction of a water-soluble tetrazolium salt (WST-8) by cellular dehydrogenases to a formazan dye which can be detected spectroscopically. 96-well plates were seeded with chinese hamster ovary cells (CHO) cells at 7×10^3 cells per well in Dulbecco's modified Eagle's medium nutrient mixture F-12 Ham (containing 15 mM HEPES, NaHCO3, pyridoxine and L-glutamine) supplemented with 10% fetal bovine serum (FBS). The following day serial dilutions of compounds (dissolved and diluted in DMSO) were added to the cells in duplicates. Control included an ‘untreated’ control where cells were grown in the presence of 1% DMSO and a medium only control (plus 1% DMSO). After 24 hours CCK-8 reagent (10 μl) was added to each well and cell viability was assessed by measuring the absorbance at a wavelength of 450 nm after 2.5-3 hours. Only living cells can reduce the tetrazolium salts into coloured formazan products. Results were expressed as 50% growth inhibition (TD50) values compared to ‘untreated’ control.
The therapeutic index was calculated as the ratio of the dose that produces growth inhibition in 50% of CHO cells divided by the dose where 50% of S. aureus growth is inhibited.

| Compound | Therapeutic Index |
| --- | --- |
| CC[P](CC)(CC)=[Au][S]C1CCOCC1 [Compound 1] | 1.7 |
| CC[P](CC)(CC)=[Au][S]C1CCN(C(=O)OC(C)(C)C)CC1 [Compound 2] | 2.3 |
| CC[P](CC)(CC)=[Au][S]c1ncccn1 [Compound 3] | 3 |
| CC[P](CC)(CC)=[Au][S]c1cccnn1 [Compound 4] | 3.7 |
| CC[P](CC)(CC)=[Au][S]c1nc2ccccc2[nH]1 [Compound 5] | 3.5 |
| CC[P](CC)(CC)=[Au][S][C@H]1CC[C@H](O)CC1 [Compound 6] | 4.5 |
| CC[P](CC)(CC)=[Au][S]C[C@H](NC(C)=O)C(=O)OC [Compound 7] | 8.7 |
| CC[P](CC)(CC)=[Au][S]c1nc2ncccc2o1 [Compound 8] | 4 |
| C[P](=[Au][S]c1nc2ccccc2[nH]1)(c1ccccc1)c1ccccc1 [Compound 9] | 1.6 |
| COC(=O)[C@H](C[S][Au]=[P](C)(c1ccccc1)c1ccccc1)NC(C)=O [Compound 10] | 1.1 |
| C[P](=[Au][S]c1nc2ncccc2o1)(c1ccccc1)c1ccccc1 [Compound 11] | 1.3 |
| CC[P](CC)(CC)=[Au][Se]C[C@H](NC(C)=O)C(=O)OC [Compound 12] | 5.3 |

test system: human hepatocyte cell line (HepG2); test: HepG2 cell inhibition assay (CCK-8 cell viability); format: cell-based; settings: dose giving 50% growth inhibition of HepG2 cells divided by dose where 50% of S. aureus growth is inhibited
Description: HepG2 Cell Inhibition Assay
Cell counting kit-8 (Sigma, CCK-8) assays were performed to assess the effect of compounds on cell viability. The assay is based on the reduction of a water-soluble tetrazolium salt (WST-8) by cellular dehydrogenases to a formazan dye which can be detected spectroscopically. 96-well plates were seeded with the human hepatocyte cell line (HepG2) at approximately 8×10^3 cells per well in Minimum Essential Medium Eagle (EMEM) with Earle's salts and sodium bicarbonate supplemented with 10% heat-inactivated foetal bovine serum 2 mM glutamine and 1% non-essential amino acids (NEAA). The following day serial dilutions of compounds (dissolved and diluted in DMSO) were added to the cells in duplicates. Control included an ‘untreated’ control where cells were grown in the presence of 1% DMSO and a medium only control (plus 1% DMSO). After 24 hours CCK-8 reagent (10 μl) was added to each well and cell viability was assessed by measuring the absorbance at a wavelength of 450 nm after 2-3 h hours. Only living cells can reduce the tetrazolium salts into coloured formazan products. Results were expressed as 50% growth inhibition (TD50) values compared to ‘untreated’ control. The therapeutic index was calculated as the ratio of the dose that produces growth inhibition in 50% of HepG2 cells divided by the dose where 50% of S. aureus growth is inhibited.

| Compound | Therapeutic Index (HepG2) |
| --- | --- |
| C[P](C)(=[Au][S]c1nc2ccccc2[nH]1)c1ccccc1 [Compound 13] | 6 |
| C[P](C)(=[Au][S]c1nc2ncccc2o1)c1ccccc1 [Compound 14] | 6 |
| COC(=O)[C@H](C[S][Au]=[P](C)(C)c1ccccc1)NC(C)=O [Compound 15] | 4 |
| CC[P](CC)(CC)=[Au][S]C[C@H](NC(C)=O)C(N)=O [Compound 16] | >11 |
| CC(C)[P](=[Au][S]c1nc2ccccc2[nH]1)(C(C)C)C(C)C [Compound 20] | >8 |
| COC(=O)[C@H](C[Se][Au]=[P](C)(c1ccccc1)c1ccccc1)NC(C)=O [Compound 22] | 4 |
| COC(=O)[C@H](C[Se][Au]=[P](C(C)C)(C(C)C)C(C)C)NC(C)=O [Compound 23] | 13 |
